This is a selection; strong and weak results do not stand in their true shares.

Chains of the proteins cited; added tags and fusions are not shown. Lines headed by an entry give the natural chain unless they say otherwise; changes in a name come on top.
UniProt Q9H9F9, whole entry: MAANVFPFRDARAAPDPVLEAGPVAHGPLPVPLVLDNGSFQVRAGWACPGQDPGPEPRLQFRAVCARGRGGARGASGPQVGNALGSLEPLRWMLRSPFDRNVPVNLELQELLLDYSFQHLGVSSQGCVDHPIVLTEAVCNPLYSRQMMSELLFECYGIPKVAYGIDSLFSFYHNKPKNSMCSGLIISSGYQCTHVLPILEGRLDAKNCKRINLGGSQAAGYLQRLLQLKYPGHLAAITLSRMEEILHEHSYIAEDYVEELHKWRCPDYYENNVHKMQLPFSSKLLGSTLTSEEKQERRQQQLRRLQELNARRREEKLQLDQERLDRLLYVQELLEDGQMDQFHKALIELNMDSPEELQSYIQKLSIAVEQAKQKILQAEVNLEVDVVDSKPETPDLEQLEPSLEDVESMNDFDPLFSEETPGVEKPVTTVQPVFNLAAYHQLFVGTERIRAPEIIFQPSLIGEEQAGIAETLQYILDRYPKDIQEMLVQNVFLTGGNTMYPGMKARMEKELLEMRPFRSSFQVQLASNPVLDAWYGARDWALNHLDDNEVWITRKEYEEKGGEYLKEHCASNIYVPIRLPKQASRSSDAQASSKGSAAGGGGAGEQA
UniProt Q9NPH2: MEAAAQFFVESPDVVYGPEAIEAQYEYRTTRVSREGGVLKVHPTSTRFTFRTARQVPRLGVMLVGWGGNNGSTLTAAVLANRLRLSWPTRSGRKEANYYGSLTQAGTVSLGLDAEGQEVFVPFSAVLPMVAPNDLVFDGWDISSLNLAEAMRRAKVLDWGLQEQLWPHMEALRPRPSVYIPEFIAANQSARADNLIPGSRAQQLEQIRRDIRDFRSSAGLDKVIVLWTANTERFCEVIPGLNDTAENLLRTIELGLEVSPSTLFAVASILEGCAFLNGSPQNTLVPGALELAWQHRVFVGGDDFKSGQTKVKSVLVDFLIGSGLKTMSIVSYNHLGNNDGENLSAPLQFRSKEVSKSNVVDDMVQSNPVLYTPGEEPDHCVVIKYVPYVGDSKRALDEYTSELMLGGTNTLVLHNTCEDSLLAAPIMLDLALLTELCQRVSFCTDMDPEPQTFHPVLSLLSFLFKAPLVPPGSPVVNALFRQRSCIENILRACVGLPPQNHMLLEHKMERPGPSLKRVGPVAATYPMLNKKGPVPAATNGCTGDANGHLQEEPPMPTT
UniProt Q9NQR4: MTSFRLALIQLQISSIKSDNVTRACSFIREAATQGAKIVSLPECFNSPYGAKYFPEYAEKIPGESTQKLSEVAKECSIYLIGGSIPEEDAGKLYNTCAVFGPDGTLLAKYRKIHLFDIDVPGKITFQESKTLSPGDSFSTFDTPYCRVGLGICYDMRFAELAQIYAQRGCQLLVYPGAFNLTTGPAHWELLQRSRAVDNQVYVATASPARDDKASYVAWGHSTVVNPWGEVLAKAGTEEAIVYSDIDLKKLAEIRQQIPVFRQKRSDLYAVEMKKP
UniProt Q9NS86: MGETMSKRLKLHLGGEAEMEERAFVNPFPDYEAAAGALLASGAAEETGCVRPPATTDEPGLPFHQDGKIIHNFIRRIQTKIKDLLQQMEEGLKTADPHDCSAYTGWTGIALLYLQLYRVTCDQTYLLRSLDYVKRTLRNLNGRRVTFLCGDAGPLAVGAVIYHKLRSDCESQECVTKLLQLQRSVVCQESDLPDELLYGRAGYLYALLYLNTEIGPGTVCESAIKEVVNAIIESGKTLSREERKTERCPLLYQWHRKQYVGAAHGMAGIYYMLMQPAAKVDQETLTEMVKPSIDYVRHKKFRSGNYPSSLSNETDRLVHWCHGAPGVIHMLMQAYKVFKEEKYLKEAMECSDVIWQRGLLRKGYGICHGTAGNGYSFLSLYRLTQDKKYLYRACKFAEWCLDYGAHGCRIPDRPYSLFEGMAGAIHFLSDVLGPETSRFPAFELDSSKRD
UniProt Q9H4A3: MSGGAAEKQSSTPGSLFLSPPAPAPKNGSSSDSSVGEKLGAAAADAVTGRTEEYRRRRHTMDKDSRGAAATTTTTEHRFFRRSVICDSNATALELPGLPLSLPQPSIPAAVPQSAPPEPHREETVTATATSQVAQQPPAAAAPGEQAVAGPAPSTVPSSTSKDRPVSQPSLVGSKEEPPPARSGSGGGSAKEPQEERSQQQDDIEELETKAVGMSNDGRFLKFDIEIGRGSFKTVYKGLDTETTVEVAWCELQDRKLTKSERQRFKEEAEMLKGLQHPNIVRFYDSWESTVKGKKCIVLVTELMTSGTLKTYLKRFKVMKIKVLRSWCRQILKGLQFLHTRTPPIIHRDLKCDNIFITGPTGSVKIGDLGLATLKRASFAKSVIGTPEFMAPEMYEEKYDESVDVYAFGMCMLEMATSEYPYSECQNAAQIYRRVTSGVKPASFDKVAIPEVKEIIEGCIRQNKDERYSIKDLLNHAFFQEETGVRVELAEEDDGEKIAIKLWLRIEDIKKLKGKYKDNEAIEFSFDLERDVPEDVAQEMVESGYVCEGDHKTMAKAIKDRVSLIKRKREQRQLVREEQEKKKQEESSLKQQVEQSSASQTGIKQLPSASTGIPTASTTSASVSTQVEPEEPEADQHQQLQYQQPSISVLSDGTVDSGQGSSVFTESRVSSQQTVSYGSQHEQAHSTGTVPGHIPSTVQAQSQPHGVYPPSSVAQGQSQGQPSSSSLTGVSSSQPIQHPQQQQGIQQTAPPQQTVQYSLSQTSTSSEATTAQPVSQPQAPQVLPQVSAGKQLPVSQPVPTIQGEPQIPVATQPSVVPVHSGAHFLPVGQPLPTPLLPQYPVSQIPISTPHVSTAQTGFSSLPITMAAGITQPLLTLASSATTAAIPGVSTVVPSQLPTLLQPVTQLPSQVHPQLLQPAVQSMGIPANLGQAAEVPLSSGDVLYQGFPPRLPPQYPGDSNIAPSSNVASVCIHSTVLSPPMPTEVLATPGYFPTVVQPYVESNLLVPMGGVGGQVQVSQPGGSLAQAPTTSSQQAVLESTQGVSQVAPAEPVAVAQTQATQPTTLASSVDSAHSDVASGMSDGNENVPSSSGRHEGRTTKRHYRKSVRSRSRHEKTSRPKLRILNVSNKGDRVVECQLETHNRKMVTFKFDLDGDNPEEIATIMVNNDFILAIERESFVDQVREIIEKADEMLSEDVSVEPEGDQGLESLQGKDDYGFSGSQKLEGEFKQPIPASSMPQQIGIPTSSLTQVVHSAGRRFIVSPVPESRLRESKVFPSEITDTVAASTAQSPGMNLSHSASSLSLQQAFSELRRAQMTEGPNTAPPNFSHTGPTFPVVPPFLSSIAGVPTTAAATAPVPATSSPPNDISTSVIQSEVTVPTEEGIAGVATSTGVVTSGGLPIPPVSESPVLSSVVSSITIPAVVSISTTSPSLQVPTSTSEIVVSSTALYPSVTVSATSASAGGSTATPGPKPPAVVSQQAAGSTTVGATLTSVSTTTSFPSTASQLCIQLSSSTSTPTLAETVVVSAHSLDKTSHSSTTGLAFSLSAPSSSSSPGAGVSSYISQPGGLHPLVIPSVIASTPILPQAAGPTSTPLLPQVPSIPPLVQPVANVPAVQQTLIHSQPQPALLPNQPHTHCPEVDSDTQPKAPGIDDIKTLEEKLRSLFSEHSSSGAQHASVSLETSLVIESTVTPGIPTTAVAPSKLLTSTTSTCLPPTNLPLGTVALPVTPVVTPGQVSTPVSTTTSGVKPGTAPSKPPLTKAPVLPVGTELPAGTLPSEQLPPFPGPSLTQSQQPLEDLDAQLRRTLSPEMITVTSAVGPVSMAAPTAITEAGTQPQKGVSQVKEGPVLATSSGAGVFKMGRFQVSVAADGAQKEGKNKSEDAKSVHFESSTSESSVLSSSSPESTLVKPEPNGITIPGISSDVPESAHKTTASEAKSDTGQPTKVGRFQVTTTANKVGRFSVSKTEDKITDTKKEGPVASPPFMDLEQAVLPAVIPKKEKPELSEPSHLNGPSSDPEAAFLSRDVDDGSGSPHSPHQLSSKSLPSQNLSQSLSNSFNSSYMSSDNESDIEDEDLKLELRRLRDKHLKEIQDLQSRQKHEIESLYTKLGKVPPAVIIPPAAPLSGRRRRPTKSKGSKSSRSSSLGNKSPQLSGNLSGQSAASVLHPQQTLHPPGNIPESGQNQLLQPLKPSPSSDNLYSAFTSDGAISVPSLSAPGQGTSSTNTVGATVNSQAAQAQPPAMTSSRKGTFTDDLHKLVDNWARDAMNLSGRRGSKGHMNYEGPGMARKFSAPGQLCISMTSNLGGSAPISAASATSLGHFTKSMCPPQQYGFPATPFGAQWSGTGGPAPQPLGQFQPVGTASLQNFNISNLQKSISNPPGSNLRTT
UniProt Q9H6F5: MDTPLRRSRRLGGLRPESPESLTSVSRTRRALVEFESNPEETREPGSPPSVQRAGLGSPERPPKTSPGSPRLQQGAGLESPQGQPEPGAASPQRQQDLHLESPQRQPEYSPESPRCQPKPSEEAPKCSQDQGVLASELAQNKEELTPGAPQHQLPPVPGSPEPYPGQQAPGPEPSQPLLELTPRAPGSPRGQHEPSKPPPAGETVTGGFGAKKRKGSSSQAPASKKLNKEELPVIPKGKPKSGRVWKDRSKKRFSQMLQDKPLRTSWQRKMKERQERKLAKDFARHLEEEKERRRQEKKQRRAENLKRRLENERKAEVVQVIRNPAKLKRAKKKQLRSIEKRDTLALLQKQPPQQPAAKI
UniProt Q9NSD9: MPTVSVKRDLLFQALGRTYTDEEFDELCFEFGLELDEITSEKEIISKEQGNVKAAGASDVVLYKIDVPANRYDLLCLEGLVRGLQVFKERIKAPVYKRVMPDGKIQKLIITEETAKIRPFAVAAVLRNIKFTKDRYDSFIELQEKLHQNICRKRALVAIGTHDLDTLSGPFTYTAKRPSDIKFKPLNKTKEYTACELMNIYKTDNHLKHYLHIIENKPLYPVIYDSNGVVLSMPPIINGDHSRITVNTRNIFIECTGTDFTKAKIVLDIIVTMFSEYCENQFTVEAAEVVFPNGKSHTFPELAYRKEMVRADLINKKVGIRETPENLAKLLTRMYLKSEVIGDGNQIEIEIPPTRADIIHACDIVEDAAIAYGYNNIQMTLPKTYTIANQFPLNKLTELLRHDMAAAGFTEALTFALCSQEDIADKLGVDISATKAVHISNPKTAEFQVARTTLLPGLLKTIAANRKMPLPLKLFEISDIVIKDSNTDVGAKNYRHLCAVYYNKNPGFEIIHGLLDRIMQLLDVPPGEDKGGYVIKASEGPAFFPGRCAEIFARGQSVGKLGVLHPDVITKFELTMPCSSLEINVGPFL
UniProt Q9NQ88: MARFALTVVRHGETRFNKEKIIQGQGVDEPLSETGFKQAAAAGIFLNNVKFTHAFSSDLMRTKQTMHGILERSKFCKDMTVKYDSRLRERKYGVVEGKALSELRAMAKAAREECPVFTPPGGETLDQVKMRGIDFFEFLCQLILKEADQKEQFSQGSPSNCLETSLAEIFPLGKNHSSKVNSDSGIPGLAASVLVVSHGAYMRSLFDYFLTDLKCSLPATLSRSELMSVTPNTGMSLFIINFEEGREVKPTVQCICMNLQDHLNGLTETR
UniProt Q9H694: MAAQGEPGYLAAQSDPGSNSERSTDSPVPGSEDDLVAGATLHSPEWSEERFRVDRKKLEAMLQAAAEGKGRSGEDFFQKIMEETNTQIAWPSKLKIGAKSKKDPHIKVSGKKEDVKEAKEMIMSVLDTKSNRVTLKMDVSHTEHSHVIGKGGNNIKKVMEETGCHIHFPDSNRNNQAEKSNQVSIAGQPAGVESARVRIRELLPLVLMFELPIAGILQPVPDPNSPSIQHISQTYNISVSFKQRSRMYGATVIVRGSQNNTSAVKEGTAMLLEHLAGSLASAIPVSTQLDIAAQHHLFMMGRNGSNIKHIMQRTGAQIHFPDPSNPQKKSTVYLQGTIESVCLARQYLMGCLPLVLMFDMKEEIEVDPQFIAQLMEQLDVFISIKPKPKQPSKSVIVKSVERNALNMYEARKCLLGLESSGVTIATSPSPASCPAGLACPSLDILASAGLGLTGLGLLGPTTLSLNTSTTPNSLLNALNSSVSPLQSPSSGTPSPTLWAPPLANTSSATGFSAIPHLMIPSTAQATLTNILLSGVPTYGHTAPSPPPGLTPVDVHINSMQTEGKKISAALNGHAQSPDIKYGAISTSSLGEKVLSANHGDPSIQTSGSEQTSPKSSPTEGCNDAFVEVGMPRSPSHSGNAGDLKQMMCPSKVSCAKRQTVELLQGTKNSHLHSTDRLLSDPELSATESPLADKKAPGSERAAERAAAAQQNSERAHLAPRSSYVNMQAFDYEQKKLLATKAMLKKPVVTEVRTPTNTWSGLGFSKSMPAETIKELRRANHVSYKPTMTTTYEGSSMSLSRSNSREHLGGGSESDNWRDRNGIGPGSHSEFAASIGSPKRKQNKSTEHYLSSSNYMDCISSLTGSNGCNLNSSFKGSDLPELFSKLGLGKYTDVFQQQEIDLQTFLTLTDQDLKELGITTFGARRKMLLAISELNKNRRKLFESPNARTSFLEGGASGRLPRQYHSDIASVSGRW

Compound in this assay: COC(=O)C#Cc1ccccc1 [methyl 3-phenylpropiolate]
Description: log2 ratio of iodoacetamide-alkyne labeling of the cysteine site, DMSO over compound (competition); higher = stronger covalent engagement of the cysteine by the compound, active = 1 or more. As to conditions: 500 µM; treatment time 1 h; system: HEK293T cell lysate. The gist of the method: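 HEK293T lysate (2 mg/mL) was treated with DMSO or electrophile (500 µM, 1 h, ambient temperature), then iodoacetamide alkyne (1 h), clicked to sCIP-TMT reagents, pooled, trypsin-digested overnight at 37 °C, streptavidin-enriched and acid-eluted. Peptides were run on Orbitrap Eclipse LC-MS/MS with FAIMS and quantified in FragPipe. The log2 competition ratio per cysteine is mean control-channel over mean compound-channel reporter intensity. Duplicate channels and three replicates were used, and cysteines quantified in only one replicate were excluded.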
For the target OSGEPL1 C356 (UniProt Q9H4B0), the “log2 ratio of iodoacetamide-alkyne labeling” value (“log2 ratio” for short) was inactive: 0.273. For OPA3 C164 (UniProt Q9H6K4) the value was inactive: 0.331. For ACTR5 C48 (UniProt Q9H9F9) the value was inactive: 0.121; for ISYNA1 C541 (UniProt Q9NPH2), inactive: 0.452. In the case of CD320 C139 (UniProt Q9NPF0), the “log2 ratio” value is inactive: 0.504. Take ZNF277 C137 (UniProt Q9NRM2): the “log2 ratio” value is inactive: 0.0277. For NIT2 C146 (UniProt Q9NQR4), the “log2 ratio” value was inactive: 0.119.

UPF2 C1107 (UniProt Q9HAU5): the “log2 ratio” value is inactive: 0.18.

As for AAAS C279 (UniProt Q9NRG9), the “log2 ratio” value is inactive: 0.178. The result for LANCL2 C187 (UniProt Q9NS86) reads inactive: -0.0212; that for PPAN C180 (UniProt Q9NQ55), inactive: 0.0291.

Turning to WNK1 C547 (UniProt Q9H4A3), the “log2 ratio” value is inactive: 0.996. Turning to CCDC86 C116 (UniProt Q9H6F5), the “log2 ratio” value is inactive: 0.382. For the target FARSB C151 (UniProt Q9NSD9), the “log2 ratio” value is inactive: 0.117.

Consider DDX21 C378 (UniProt Q9NR30), for which the “log2 ratio” value is inactive: 0.166. For DDX21 C682 (UniProt Q9NR30) the value was inactive: 0.109. As to UniProt Q9NQ88_C114, the “log2 ratio” value was inactive: 0.336. For TRABD C287 (UniProt Q9H4I3), the “log2 ratio” value was inactive: 0.0519. For MBNL1 C43 (UniProt Q9NR56) the value was inactive: 0.252. For BICC1 C621 (UniProt Q9H694) the value was inactive: 0.525. The result for YTHDC2 C1265 (UniProt Q9H6S0) reads inactive: 0.697.

Source of the values: the supplement of paper PMC11006884.
